Data reported in the supplement of paper PMC10849652.
The list shows a part of the results.

The chains behind the UniProt entries cited, without tags or fusion partners. Where a name states a change or a piece, a line headed by the entry shows the natural chain unless it says otherwise.
UniProt P53567: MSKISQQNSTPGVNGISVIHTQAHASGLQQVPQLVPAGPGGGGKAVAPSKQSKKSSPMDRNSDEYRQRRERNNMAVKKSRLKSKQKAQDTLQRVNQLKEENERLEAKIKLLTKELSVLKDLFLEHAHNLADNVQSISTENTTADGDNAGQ
UniProt Q86WJ1: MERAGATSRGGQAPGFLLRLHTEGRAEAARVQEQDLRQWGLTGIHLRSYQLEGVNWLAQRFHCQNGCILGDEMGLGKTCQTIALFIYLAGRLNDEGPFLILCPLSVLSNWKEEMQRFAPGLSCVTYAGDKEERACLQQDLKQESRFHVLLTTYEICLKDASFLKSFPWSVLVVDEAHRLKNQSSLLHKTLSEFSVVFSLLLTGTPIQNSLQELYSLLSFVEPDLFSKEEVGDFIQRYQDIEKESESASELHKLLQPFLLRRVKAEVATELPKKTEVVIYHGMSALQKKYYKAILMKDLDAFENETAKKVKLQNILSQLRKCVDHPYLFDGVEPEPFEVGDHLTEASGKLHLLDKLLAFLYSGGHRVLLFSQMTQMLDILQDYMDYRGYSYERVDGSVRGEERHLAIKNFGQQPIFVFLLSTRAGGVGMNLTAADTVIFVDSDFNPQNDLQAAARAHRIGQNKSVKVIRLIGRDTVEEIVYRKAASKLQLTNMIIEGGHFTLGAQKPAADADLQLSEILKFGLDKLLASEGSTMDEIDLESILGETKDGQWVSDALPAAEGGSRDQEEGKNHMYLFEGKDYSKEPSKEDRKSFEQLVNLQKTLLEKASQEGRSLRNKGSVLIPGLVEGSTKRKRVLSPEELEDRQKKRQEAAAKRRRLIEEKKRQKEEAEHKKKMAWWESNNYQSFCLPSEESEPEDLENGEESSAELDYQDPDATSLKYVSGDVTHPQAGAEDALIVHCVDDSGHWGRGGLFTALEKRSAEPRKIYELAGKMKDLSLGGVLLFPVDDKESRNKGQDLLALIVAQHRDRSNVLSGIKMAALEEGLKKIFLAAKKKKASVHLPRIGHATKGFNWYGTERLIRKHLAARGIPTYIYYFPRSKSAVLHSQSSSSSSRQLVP
UniProt Q9BSY4: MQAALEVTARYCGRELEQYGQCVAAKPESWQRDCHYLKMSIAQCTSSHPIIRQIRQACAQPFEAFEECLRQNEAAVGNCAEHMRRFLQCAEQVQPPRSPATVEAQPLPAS
UniProt Q96EP1: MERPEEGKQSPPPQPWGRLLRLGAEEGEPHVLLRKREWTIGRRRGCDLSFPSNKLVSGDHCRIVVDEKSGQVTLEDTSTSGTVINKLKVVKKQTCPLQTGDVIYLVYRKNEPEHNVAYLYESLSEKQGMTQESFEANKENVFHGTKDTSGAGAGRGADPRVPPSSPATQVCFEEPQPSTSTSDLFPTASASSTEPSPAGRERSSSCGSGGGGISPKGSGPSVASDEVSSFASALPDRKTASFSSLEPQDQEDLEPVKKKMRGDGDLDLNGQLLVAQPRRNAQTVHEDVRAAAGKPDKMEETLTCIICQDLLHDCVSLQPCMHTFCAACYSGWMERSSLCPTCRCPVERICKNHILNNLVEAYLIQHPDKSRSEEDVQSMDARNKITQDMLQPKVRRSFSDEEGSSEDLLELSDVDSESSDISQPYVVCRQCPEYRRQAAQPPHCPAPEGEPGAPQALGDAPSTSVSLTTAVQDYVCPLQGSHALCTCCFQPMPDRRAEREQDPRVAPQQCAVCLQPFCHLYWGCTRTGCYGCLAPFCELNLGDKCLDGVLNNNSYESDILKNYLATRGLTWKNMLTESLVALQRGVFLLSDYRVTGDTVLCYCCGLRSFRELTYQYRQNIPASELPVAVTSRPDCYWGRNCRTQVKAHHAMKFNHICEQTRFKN
UniProt Q86X02: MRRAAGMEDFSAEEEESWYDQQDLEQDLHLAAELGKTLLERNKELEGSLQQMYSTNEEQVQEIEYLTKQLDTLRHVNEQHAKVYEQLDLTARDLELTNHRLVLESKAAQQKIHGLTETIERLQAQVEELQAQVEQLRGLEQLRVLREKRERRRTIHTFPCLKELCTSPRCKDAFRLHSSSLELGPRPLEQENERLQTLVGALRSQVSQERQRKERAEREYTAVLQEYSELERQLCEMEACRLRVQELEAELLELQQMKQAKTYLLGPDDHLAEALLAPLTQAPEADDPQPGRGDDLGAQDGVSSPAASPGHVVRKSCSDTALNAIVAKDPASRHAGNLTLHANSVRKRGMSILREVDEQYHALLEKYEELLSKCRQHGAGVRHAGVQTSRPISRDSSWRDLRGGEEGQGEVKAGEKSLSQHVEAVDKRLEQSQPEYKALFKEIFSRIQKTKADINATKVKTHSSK
UniProt Q7Z7K6: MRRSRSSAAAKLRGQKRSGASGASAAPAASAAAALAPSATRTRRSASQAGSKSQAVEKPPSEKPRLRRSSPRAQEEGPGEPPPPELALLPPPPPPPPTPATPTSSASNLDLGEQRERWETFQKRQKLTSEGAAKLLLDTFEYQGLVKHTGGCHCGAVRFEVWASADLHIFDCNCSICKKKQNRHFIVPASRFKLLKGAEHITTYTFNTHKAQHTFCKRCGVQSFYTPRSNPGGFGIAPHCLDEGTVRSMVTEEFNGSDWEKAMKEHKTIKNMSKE
UniProt P19022: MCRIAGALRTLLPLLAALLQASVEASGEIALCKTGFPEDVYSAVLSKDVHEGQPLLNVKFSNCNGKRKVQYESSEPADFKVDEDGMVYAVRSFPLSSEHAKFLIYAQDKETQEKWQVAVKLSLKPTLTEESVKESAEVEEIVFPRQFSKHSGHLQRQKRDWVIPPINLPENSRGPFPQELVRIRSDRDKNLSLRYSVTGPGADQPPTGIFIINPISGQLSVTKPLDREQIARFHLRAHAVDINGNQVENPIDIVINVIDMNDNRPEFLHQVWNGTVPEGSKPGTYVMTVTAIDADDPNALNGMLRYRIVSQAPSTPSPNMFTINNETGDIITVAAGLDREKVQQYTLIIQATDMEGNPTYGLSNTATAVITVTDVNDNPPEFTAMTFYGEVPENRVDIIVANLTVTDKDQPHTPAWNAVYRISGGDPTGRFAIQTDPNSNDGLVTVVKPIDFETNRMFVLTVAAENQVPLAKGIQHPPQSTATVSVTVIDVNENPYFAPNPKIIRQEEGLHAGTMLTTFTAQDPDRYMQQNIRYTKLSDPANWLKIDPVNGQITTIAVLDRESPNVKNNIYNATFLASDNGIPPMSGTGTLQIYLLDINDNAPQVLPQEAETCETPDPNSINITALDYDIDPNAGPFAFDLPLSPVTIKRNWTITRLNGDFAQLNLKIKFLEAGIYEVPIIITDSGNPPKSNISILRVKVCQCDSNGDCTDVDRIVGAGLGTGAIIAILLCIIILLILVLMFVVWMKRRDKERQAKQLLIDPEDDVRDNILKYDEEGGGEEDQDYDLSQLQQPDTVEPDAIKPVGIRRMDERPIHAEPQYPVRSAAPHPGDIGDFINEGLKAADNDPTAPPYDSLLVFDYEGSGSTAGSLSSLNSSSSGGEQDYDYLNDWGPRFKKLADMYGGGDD
UniProt Q9BS16: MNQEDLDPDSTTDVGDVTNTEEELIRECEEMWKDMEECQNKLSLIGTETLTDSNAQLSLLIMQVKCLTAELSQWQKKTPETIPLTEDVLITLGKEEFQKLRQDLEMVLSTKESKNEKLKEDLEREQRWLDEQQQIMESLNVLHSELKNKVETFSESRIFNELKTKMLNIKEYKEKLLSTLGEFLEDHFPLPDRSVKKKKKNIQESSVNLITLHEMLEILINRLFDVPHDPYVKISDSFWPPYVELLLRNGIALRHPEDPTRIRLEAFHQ
UniProt Q6P2H3: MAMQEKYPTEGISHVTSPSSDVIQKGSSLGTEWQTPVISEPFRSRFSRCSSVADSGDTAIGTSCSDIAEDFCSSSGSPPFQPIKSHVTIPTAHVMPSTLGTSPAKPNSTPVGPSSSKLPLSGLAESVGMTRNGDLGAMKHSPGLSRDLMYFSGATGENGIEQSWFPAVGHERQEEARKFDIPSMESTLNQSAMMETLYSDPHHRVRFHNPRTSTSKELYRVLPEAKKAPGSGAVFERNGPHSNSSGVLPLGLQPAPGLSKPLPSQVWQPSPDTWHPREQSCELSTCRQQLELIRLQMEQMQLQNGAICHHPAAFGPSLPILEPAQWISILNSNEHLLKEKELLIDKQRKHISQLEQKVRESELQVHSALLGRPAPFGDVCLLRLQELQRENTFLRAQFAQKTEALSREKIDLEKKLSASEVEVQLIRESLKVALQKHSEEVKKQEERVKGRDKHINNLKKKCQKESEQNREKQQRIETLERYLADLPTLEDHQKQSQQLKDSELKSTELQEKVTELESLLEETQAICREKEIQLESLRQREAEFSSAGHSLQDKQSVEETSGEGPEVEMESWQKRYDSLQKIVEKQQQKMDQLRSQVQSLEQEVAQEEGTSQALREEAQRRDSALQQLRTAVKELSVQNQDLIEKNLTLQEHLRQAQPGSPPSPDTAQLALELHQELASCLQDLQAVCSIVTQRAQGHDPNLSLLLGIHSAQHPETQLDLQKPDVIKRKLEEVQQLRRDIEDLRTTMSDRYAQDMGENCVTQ
UniProt Q711Q0: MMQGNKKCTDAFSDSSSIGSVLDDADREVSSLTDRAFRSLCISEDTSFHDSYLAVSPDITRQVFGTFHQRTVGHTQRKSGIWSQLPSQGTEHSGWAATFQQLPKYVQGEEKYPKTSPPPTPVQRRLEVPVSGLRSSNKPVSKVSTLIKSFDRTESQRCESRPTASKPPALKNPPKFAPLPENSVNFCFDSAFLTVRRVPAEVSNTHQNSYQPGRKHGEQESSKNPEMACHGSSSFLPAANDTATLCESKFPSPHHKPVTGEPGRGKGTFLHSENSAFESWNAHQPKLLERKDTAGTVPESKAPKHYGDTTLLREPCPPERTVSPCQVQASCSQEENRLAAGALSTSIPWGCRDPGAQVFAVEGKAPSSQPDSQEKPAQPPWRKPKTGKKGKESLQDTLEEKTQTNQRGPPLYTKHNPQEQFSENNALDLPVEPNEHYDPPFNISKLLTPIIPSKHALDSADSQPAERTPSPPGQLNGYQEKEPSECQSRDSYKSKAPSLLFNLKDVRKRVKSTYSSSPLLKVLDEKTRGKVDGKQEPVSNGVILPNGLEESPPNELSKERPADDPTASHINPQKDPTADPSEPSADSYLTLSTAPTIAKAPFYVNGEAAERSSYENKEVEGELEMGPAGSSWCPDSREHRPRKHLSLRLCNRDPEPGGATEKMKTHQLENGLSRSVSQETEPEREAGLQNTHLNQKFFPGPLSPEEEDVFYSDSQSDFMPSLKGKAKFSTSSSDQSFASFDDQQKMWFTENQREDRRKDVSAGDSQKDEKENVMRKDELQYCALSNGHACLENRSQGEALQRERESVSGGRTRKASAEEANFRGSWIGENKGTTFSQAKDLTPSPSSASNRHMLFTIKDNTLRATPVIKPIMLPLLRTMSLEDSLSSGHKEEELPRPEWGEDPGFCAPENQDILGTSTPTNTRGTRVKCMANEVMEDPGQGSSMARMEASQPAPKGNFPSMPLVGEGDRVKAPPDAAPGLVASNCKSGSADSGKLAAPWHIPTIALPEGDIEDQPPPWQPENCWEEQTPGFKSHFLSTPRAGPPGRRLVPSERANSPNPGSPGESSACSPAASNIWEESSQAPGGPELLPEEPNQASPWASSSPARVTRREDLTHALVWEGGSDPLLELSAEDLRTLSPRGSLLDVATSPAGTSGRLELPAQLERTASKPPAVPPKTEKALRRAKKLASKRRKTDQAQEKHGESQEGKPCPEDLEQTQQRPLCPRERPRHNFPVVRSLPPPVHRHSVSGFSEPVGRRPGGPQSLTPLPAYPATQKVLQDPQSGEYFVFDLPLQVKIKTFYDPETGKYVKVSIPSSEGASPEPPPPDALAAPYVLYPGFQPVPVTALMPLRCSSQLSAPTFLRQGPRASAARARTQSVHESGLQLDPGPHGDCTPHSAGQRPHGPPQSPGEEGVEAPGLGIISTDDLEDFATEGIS
UniProt Q9BYV8: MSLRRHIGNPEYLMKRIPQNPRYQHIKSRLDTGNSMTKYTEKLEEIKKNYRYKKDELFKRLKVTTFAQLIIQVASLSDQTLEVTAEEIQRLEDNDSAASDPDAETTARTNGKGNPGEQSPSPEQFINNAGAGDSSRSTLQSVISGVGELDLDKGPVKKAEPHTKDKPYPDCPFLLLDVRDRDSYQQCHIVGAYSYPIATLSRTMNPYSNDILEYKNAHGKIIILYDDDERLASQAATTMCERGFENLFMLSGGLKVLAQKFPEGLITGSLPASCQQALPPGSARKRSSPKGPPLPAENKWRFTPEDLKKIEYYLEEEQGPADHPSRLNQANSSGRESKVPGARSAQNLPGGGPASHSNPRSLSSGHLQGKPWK
UniProt A8MT69: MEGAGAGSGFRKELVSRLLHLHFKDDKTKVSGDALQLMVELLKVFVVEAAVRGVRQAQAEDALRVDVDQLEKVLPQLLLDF
UniProt O75956: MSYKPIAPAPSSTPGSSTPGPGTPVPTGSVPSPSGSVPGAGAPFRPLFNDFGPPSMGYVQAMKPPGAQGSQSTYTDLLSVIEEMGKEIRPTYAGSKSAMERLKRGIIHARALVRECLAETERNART

Tests used:
Experiment in all cases: log2 fold change, soluble protein after heating vs DMSO (PISA); higher = thermal stabilisation; K562 cells, 10 uM, 30 min; active = over 0.2 and 3.5 SD of the protein, either way, in both replicates (recomputed)
[1] = compound: NCC(=O)Nc1ccc(-n2nc(C(F)(F)F)cc2-c2ccc3c(ccc4ccccc43)c2)cc1
Summary of the method: (§1)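 K562 cells at 2×10^6 cells/mL were treated with 10 μM compound for 30 min. Aliquots were heated for 3 min across 48°C-58°C, pooled, and extracted in PBS with 0.5% NP-40 at 4°C; soluble protein was the supernatant after 21,000xg for 90 min. Soluble protein was quantified by TMTpro 16plex LC-MS/MS with channel sums equalised, and reported as log2 fold change in thermal stability against DMSO controls, with values from duplicates.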

[2] = compound: O=C(CCCCCCNC(=O)c1cnc(N(c2ccccc2)c2ccccc2Cl)nc1)NO [citarinostat]
Summary of the method: as §1

[3] = compound: c1cc(OCCN2CCCCC2)cc(-c2n[nH]c3ccc(-c4nnc[nH]4)cc23)c1
Summary of the method: as §1

[4] = compound: NC(=O)c1cnc(N[C@@H]2CCCC[C@@H]2N)nc1Nc1cccc(-n2nccn2)c1
Summary of the method: as §1

[5] = compound: O=C(CCCCCCC(=O)Nc1ccccc1)NO [vorinostat]
Summary of the method: as §1

[6] = compound: NC(=O)Nc1cc(-c2cccc(F)c2)sc1C(=O)N[C@H]1CCCNC1
Summary of the method: as §1

[7] = compound: Nc1ccccc1NC(=O)c1ccc(CNC(=O)OCc2cccnc2)cc1 [entinostat]
Summary of the method: as §1

[8] = compound: O=C1NC(=O)C(c2cnc3ccccn23)=C1c1cn2c3c(cc(F)cc13)CN(C(=O)N1CCCCC1)CC2
Summary of the method: as §1

[9] = compound: NC1(c2ccc(-c3nc4ccn5c(=O)[nH]nc5c4cc3-c3ccccc3)cc2)CCC1
Summary of the method: as §1

[10] = compound: O=C(O)c1ccc2c(c1)nc(Nc1cccc(Cl)c1)c1ccncc12 [silmitasertib]
Summary of the method: as §1

Measured: log2 fold change

CDC42BPG (UniProt Q6DT37)
inactive: [1] 0.045 | [2] 0.074 | [3] -0.225

CEBPG (UniProt P53567)
inactive: [4] -0.07 | [5] -0.158 | [2] -0.141 | [3] -0.286

CHD1L (UniProt Q86WJ1)
inactive: [6] -0.126 | [1] -0.361 | [7] -0.051 | [5] 0.157

CDT1 (UniProt Q9H211)
inactive: [8] -0.002

CFL1 (UniProt E9PP50)
inactive: [5] 0.217

CEBPB (UniProt P17676)
inactive: [4] -0.158 | [9] 0.028 | [5] -0.345 | [2] -0.092 | [10] 0.042 | [8] 0.159 | [3] -0.056

CHCHD5 (UniProt Q9BSY4)
inactive: [6] 0.046 | [9] 0.037 | [7] 0.182 | [10] -0.079

CHFR (UniProt Q96EP1)
inactive: [9] -0.059 | [1] -0.168 | [2] 0.064 | [10] 0.175 | [8] -0.06 | [3] 0.282

CDR2L (UniProt Q86X02)
inactive: [4] -0.071 | [1] -0.125 | [5] 0.102 | [2] 0.032 | [3] -0.128

CDC6 (UniProt Q99741)
inactive: [8] -0.094

CENPV (UniProt Q7Z7K6)
inactive: [6] 0.043 | [7] 0.074 | [5] 0.099 | [8] 0.318

CDH2 (UniProt P19022)
inactive: [5] -1.15

Two consecutive records from above:
CHFR (UniProt Q96EP1)
inactive: [9] -0.059 | [1] -0.168 | [2] 0.064 | [10] 0.175 | [8] -0.06 | [3] 0.282

CDR2L (UniProt Q86X02)
inactive: [4] -0.071 | [1] -0.125 | [5] 0.102 | [2] 0.032 | [3] -0.128

Continuation.

CHMP2A (UniProt M0R1T5)
inactive: [4] 0.104 | [9] -0.225 | [10] -0.081

CENPK (UniProt Q9BS16)
inactive: [1] 0.071 | [2] 0.117 | [3] 0.066

CEP85 (UniProt Q6P2H3)
inactive: [4] 0.097 | [9] -0.03 | [1] -0.041 | [5] 0.017 | [2] 0.046 | [10] -0.102 | [3] -0.044

CEFIP (UniProt Q711Q0)
inactive: [4] -0.015 | [9] -0.005 | [1] -0.187 | [10] 0.044 | [8] 0.098

CEP41 (UniProt Q9BYV8)
inactive: [6] -0.048 | [7] 0.24 | [2] 0.178 | [3] -0.331

CENPX (UniProt A8MT69)
inactive: [6] -0.05 | [7] 0.068 | [2] 0.112 | [3] -0.183

CDK2AP2 (UniProt O75956)
inactive: [4] -0.05 | [9] 0.14 | [2] 0.009 | [10] -0.094 | [8] -0.062 | [3] -0.1
